Reference: publication PMC6925144, “A prospective compound screening contest identified broader inhibitors for Sirtuin 1” (Scientific Reports, 2019)
In all, about 3,200 compounds were measured (“TSA(without NAD+) / Primary screening (TSA) / delta Tm (K)”: median about -0.07, highest 2% from about 0.37 on). Some of the results follow.

The chains behind the UniProt entries cited, without tags or fusion partners. Residues count along the entry.
UniProt Q96EB6, 2-747 limits assumed: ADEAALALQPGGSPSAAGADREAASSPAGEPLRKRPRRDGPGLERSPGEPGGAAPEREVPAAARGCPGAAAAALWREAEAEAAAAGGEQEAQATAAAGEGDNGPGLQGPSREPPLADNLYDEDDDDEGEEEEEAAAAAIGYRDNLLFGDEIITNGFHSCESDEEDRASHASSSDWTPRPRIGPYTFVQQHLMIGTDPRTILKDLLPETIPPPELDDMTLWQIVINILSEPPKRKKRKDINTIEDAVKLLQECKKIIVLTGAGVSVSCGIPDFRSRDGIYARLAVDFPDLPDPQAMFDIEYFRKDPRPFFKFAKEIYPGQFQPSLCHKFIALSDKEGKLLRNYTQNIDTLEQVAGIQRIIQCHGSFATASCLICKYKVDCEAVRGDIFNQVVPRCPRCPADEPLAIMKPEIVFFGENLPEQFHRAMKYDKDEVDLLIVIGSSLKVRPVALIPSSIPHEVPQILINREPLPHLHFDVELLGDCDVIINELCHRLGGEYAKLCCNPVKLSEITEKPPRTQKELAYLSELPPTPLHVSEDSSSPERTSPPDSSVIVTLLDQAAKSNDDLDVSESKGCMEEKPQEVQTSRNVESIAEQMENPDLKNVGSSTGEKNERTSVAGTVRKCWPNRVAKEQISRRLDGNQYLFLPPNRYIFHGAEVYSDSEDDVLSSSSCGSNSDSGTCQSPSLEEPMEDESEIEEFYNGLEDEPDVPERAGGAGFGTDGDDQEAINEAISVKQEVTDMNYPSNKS

These compounds were tested against NAD-dependent deacetylase Sirtuin 1 (human, UniProt Q96EB6) (assay: primary screen, delta tm). Settings: 10 µM.
Design: single well (n = 1)
Outline: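 Thermal shift of Sirtuin 1 measured without NAD+, compound at 10 µM (n = 1); value is ΔTm, with hits defined as ΔTm > 0.45 K or < −1.5 K. Hits retested at 5, 10, 20 µM (n = 4) and counterscreened on bovine carbonic anhydrase and ABL1 SH2 domain.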

SMILES	TSA(without NAD+) / Primary screening (TSA) / delta Tm (K)
CN(Cc1cnn(Cc2ccccc2)c1)C(=O)CCc1ncc(-c2c(F)cccc2F)o1	-0.03 K
Cn1c(=O)[nH]c(=O)c2c1nc(N1CCC(C(N)=O)CC1)n2CCSc1ncccn1	-0.07 K
NC(=O)c1ccc(OCC(=O)N(CCc2ccccc2)Cc2ccccc2)cc1	-0.27 K
C[C@H]1CNCCN1	-0.08 K
CC(C)(C)OC(=O)NC1CCN(CC(=O)NCCNc2ncnc3sccc23)CC1	0.25 K
COc1ccccc1NS(=O)(=O)c1cccc(NC(=O)c2oc3ccccc3c2CSC)c1	0.18 K
O=C(c1ccccc1)C(Sc1nc(-c2ccccc2)n[nH]1)c1ccccc1 (stereo not drawn)	0.08 K
O=C(O)CNCC(=O)O	0.05 K
O=C(OCc1cc(=O)n2c(n1)sc1ccccc12)c1ccc2[nH]c3c(c2c1)CCCC3	0.25 K
CC1(C)Cc2cccc(OCC(=O)OCC(=O)Nc3ccc(C(N)=O)cc3)c2O1	0.03 K
O=C(CCCc1nc2ccccc2c(=O)[nH]1)NC1CCCc2ccccc21 (stereo not drawn)	-0.23 K
O=C(Cn1[nH]c(=O)c2ccccc2c1=O)NC1CCCc2ccccc21 (stereo not drawn)	0.19 K
Cc1nc2ccccc2c(C)c1CC(=O)NC1CCCc2ccccc21 (stereo not drawn)	-0.07 K
CC1CN(C(=O)c2ccc(NC(=O)C3=COCCC3)cc2)CC(C)O1 (stereo not drawn)	-0.02 K
CC(CN)CN	0.08 K
NC(=O)NCCCCC(=O)Nc1cccc(C(F)(F)F)c1	-0.07 K
COc1ccc(/C=N/c2ccc(C)cc2)cc1	0.07 K
Cc1nc2c(C(N)=O)ncn2c(C)c1CCC(=O)NC(c1cccs1)C(C)C (stereo not drawn)	-0.11 K
Cc1cc(C#N)ccc1S(=O)(=O)NCCC(C)N (stereo not drawn)	-0.23 K
O=C(COC(=O)CN1C(=O)c2ccccc2S1(=O)=O)Nc1ccccc1SCc1ccccc1	0.09 K

As a short view, some entries already given:
SMILES	TSA(without NAD+) / Primary screening (TSA) / delta Tm (K)
CC(CN)CN	0.08 K
NC(=O)NCCCCC(=O)Nc1cccc(C(F)(F)F)c1	-0.07 K
COc1ccc(/C=N/c2ccc(C)cc2)cc1	0.07 K
Cc1nc2c(C(N)=O)ncn2c(C)c1CCC(=O)NC(c1cccs1)C(C)C (stereo not drawn)	-0.11 K

Next part

SMILES	TSA(without NAD+) / Primary screening (TSA) / delta Tm (K)
NC(=O)c1ccc(F)c(NC(=O)C2CCCc3cccnc32)c1 (stereo not drawn)	-0.08 K
O=C(CN1c2cccc3cccc(c23)S1(=O)=O)c1c[nH]c2ccccc12	0.08 K
Cc1nc(N2CCC(C(N)=O)CC2)c2c3c(sc2n1)CCCCC3	0.78 K
O=C(Cc1ccccc1OC(F)F)Nc1cccc(-c2nnn[nH]2)c1	-0.18 K
C/C(NCc1ccccc1)=C1/Sc2ccccc2C1=O	0.09 K
O=C(Nc1ccc(Oc2ncccn2)cc1)c1ccc(S(=O)(=O)Nc2ccc(F)cc2)cc1	-0.11 K
COC(=O)c1ccc(C2NC(=O)NC3=C2C(=O)N(CC(C)O)C3)cc1 (stereo not drawn)	0.02 K
COC(=O)c1ccc(C2C(C(=O)c3sc(C)nc3C)=C(O)C(=O)N2CCCN2CCOCC2)cc1 (stereo not drawn)	-0.03 K
O=C(Nc1ccc(NC(=O)N2CCCCCC2)cc1)c1nc(Cl)ccc1Cl	0.07 K
O=C(CN1C(=O)c2ccccc2C1=O)c1ccc2c(c1)-c1ccccc1C2	-0.12 K
CC(=O)c1cc(C(=O)NCCc2ccc(-c3csc(C)n3)s2)n(C)c1	0.12 K
CC1=NNC(=O)/C1=C\c1cn(-c2ccccc2)nc1-c1cc2cc(Br)ccc2oc1=O	-0.23 K
CCCc1nnc(S)[nH]1	-0.22 K
O=C(NCCc1ccc(Cl)s1)NC1CC1	-0.04 K
NC(=O)c1ccc(COC(=O)c2ccc3c(c2)OCC(=O)N3)cc1	0.07 K
CC(C)Cc1cc(C(=O)n2ncc(C#N)c2N)[nH]n1	-0.12 K
CCCOc1ccc(C(=O)C2=C(O)C(=O)N(CCCN3CCOCC3)C2c2cccs2)cc1 (stereo not drawn)	-0.12 K
Cc1onc(-c2ccccc2)c1C(=O)Nc1cccc2c1CCCC2	0.02 K
CN(C(=O)CSc1ccccc1C(=O)OCc1cccc(S(=O)(=O)N(C)C)c1)C1CCCCC1	-0.23 K
COC(=O)CC1c2cc(OC)c(OC)cc2CCN1Cc1ccc(C(N)=O)cc1 (stereo not drawn)	-0.32 K

SMILES	TSA(without NAD+) / Primary screening (TSA) / delta Tm (K)
O=C(Cc1csc(-c2ccccc2)n1)Nc1ccc(N2CCN(Cc3ccccc3)CC2)cc1	0.02 K
CCOc1cc(C(=O)Nc2ncc(Cc3cccc(C)c3)s2)ccc1OCC(=O)N1CCCCC1	0.13 K
c1ccc2c(c1)oc1c(N3CCC4(CCOC4)C3)ncnc12 (stereo not drawn)	0.06 K
O=C(c1cc2cc(F)ccc2[nH]1)N1CCN(c2ncnc3sccc23)CC1	-0.07 K
CC1CN(C(C(=O)Nc2cnc3ccccc3c2)C(C)C)CC(C)O1 (stereo not drawn)	-0.05 K
CCOC(=O)c1sc(NC(=O)c2cnc3ccccc3n2)nc1-c1ccccc1	-0.05 K
Cn1c(SC2CCOC2=O)nc2ccccc21 (stereo not drawn)	-0.01 K
Cc1ccc(OCc2nc3ccccc3n2Cc2ccccc2C)cc1	-0.21 K
CCSCCC(=O)O	-0.02 K
O=C1NC2(CCc3ccccc3C2)C(=O)N1Cc1nc2ccccc2s1 (stereo not drawn)	-0.05 K
CCCC(C)NC(=O)COC(=O)C1CCC(=O)N(c2ccc(OC)cc2)C1c1ccc(OC)cc1 (stereo not drawn)	-0.23 K
O=C(O)c1ccc2[nH]ccc2c1	0.05 K
O=C1CCCCCN1Cc1nnc(Sc2ncnc3cc(-c4ccc(Cl)cc4)sc23)o1	-0.17 K
NCC(O)C1CC1 (stereo not drawn)	-0.31 K
Clc1ccc(-c2nnn[nH]2)cc1	-0.02 K
COc1ccc(NC(=O)CCc2ccc(F)c(F)c2)cc1OCc1cn2ccccc2n1	-0.02 K
CCCc1nnc(SC(C)C(=O)Nc2ccc(C(N)=O)cc2)n1CC(=O)O (stereo not drawn)	-0.13 K
NC(=O)c1c(NC(=O)CSc2nc3scc(-c4cccs4)c3c(=O)n2-c2ccccc2)sc2c1CCC2	-0.28 K
O=C1NC(=S)NC(=O)C1=NNc1ccc(SC(F)F)cc1	-0.11 K
COc1ccc(C(=O)C2=C(O)C(=O)N(CCCN3CCOCC3)C2c2ccccn2)cc1 (stereo not drawn)	0.09 K
